# Measurements published in PMC3544807.
# No constants are given. Whether binding was seen depends on the method and setting. In cells and extracts the contact can be indirect. Some binding calls cover weakened binding; strength is not graded here. Tags and fused reporters may be left off the sequences shown.
# T1: SH2 domain of Vav1 fused to glutathione-S-transferase (UniProt P15498)
# T1 sequence: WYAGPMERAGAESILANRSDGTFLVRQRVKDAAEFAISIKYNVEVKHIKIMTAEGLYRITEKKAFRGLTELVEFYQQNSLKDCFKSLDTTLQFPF
# B1: Cbl-c ubiquitin ligase (protein, UniProt Q9ULV8 1-474)
# chain: MALAVAPWGRQWEEARALGRAVRMLQRLEEQCVDPRLSVSPPSLRDLLPRTAQLLREVAHSRRAAGGGGPGGPGGSGDFLLIYLANLEAKSRQVAALLPPRGRRSANDELFRAGSRLRRQLAKLAIIFSHMHAELHALFPGGKYCGHMYQLTKAPAHTFWRESCGARCVLPWAEFESLLGTCHPVEPGCTALALRTTIDLTCSGHVSIFEFDVFTRLFQPWPTLLKNWQLLAVNHPGYMAFLTYDEVQERLQACRDKPGSYIFRPSCTRLGQWAIGYVSSDGSILQTIPANKPLSQVLLEGQKDGFYLYPDGKTHNPDLTELGQAEPQQRIHVSEEQLQLYWAMDSTFELCKICAESNKDVKIEPCGHLLCSCCLAAWQHSDSQTCPFCRCEIKGWEAVSIYQFHGQATAEDSGNSSDQEGRELELGQVPLSAPPLPPRPDLPPRKPRNAQPKVRLLKGNSPPAALGPQDPAPA
# Biological target: T1, SH2 domain of Vav1 fused to glutathione-S-transferase
# Test: pull-down; lysates of AU565Vav1 cells incubated with bacterial GST-Vav1SH2 (or GST-GFP), then immobilized on glutathione-Sepharose beads; bound proteins immunoblotted with anti-Cbl-c or anti-pTyr; only the target purified
binder,measurement,value
B1,binding,binds
